# Laboratory results reported in the M2OR odorant receptor database.
# This is a selection; strong and weak results do not stand in their true shares. Calls are pooled over several reports, among them a noisy single-well screen.
# Target: T1, OR2M3 (Homo sapiens) (UniProt Q8NG83)
# T1 sequence (whole entry): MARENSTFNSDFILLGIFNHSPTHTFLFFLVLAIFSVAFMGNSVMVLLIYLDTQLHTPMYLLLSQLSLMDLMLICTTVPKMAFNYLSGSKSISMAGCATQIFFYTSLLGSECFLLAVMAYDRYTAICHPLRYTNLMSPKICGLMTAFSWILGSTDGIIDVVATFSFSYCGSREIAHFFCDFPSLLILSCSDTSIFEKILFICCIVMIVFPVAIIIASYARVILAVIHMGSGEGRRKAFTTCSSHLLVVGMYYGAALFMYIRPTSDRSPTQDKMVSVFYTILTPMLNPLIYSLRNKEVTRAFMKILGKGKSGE
# Conditions: stereoisomer not certain
# In short: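 Whether a receptor–molecule pair is responsive (active) rests on the original authors' judgment that its measured signal was statistically different from baseline. Pairs without that judgment are non-responsive (inactive). Sources used varied assay methods, commonly transient luciferase assays in mammalian cell lines.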
# 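Further: active if original authors judged signal statistically different from baseline.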
compound,measurement,value
CCOc1cc(C=O)ccc1O,odorant receptor agonist call,inactive
